From the supplement of paper PMC12067093, “Discovery and optimisation of a covalent ligand for TRIM25 and its application to targeted protein ubiquitination” (Chemical Science, 2025)
This is one part of the list.

Compound: CC1Cc2ccccc2N1C(=O)C1CCCN(C1)C(=O)CCl (mixture of isomers) [TRIM25 ligand 11 (diastereomer mixture)]
Assay: probe-labelled cysteine peptide fold change vs DMSO (competition) (log2 fold change); higher = less target engagement (more negative = stronger competition)
Conditions: THP-1, incubation time: 4 h
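Further: competitive chemoproteomic profiling in live THP-1 cells with an iodoacetamide desthiobiotin (IA-DTB) probe, comparing probe-labelled peptide intensities in compound-treated cells against DMSO-treated controls.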

Target | probe-labelled cysteine peptide fold change (10 µM) | probe-labelled cysteine peptide fold change (50 µM)
MRPL14_Q6P1L8_90_ALIVGHCMPGPR (UniProt Q6P1L8) | -0.355 | -0.293
MORF4L1_Q9UBU8_19_VLCFHGPLLYEAK (UniProt Q9UBU8) | -0.00468 | 0.337
MRPL44_Q9H9J2_276_QSGGTTALPLYFVGLYCDK (UniProt Q9H9J2) | -0.0405 | -0.042
MRPL22_Q9NWU5_70_RPAEIYHCR (UniProt Q9NWU5) | 0.0067 | 0.0175
MKI67_P46013_1285_KADVEGELLACR (UniProt P46013) | -0.0292 | -0.27
MIF_P14174_60_ASVPDGFLSELTQQLAQATGKPPQYIAVHVVPDQLMAFGGSSEPCALCSLHSIGK (UniProt P14174) | -0.155 | -0.14
MRPL18_Q9H0U6_125_NVVACESIGR (UniProt Q9H0U6) | 0.143 | -0.0322
MRGBP_Q9NV56_170_NSSDLGCK (UniProt Q9NV56) | -0.192 | -0.0723
MPP6_Q9NZW5_222_CHFDYNPYNDNLIPCK (UniProt Q9NZW5) | -0.00612 | 0.127
MKS1_Q9NXB0_226_KYEHVLCTLK (UniProt Q9NXB0) | -0.0768 | 0.279
MRE11_P49959_336_VTQAIQSFCLEK (UniProt P49959) | 0.123 | 0.268
MNAT1_P51948_46+49_GAGNCPECGTPLR (UniProt P51948) | 0.0971 | -0.057
MLH1_P40692_77_KEDLDIVCER (UniProt P40692) | 0.0825 | -0.147
MKRN1_Q9UHC7_305_FGILSNCNHTYCLK (UniProt Q9UHC7) | -0.0456 | 0.0154
MORC3_Q14149_62_TVINDHICLTFTDNGNGMTSDK (UniProt Q14149) | -0.113 | 0.0366
MRPL37_Q9BZE1_203_ICVQNSTFSATWNR (UniProt Q9BZE1) | -0.00494 | 0.06
MIF_P14174_81_LLCGLLAER (UniProt P14174) | -0.156 | -0.117
MORF4L2_Q15014_165_NVDAILEEYANCKK (UniProt Q15014) | -0.228 | -0.146
MRC2_Q9UBG0_521_AGQLSQGAAEEDHGCR (UniProt Q9UBG0) | -0.183 | -0.219
MPI_P34949_11_VFPLSCAVQQYAWGK (UniProt P34949) | -0.0964 | -0.055
MMADHC_Q9H3L0_261+262_HLGFSVDDLGCCK (UniProt Q9H3L0) | 0.0906 | -0.242

Single records, as listed above. Order of values: probe-labelled cysteine peptide fold change (10 µM)	probe-labelled cysteine peptide fold change (50 µM)
MRGBP_Q9NV56_170_NSSDLGCK (UniProt Q9NV56) reads -0.192	-0.0723
MRPL14_Q6P1L8_90_ALIVGHCMPGPR (UniProt Q6P1L8) reads -0.355	-0.293
MPP6_Q9NZW5_222_CHFDYNPYNDNLIPCK (UniProt Q9NZW5) reads -0.00612	0.127
MIF_P14174_60_ASVPDGFLSELTQQLAQATGKPPQYIAVHVVPDQLMAFGGSSEPCALCSLHSIGK (UniProt P14174) reads -0.155	-0.14

The results go on.

Target | probe-labelled cysteine peptide fold change (10 µM) | probe-labelled cysteine peptide fold change (50 µM)
MRPL44_Q9H9J2_96_TAFVNSCYIK (UniProt Q9H9J2) | -0.0292 | 0.0233
MKI67_P46013_1007_MPCQSLQPEPINTPTHTK (UniProt P46013) | -0.17 | -0.324
MOGS_Q13724_137_HTCEQGDGVGPYGWEFHDGLSFGR (UniProt Q13724) | -0.0183 | -0.127
MRPL38_Q96DV4_321_HQETMTPAGLSFFQCR (UniProt Q96DV4) | -0.299 | -0.138
MKLN1_Q9UL63_393_LVFDHQMCMDSEK (UniProt Q9UL63) | 0.0587 | -0.102
MOCS2_O96033_5_MVPLCQVEVLYFAK (UniProt O96033) | -0.0724 | -0.0621
MKNK1_Q9BUB5_231_ICDFDLGSGMK (UniProt Q9BUB5) | -0.167 | -0.179
MNDA_P41218_274_VITISDYSECK (UniProt P41218) | 0.0525 | 0.127
MRPL21_Q7Z2W9_203_INSIEIAPCLL (UniProt Q7Z2W9) | 0.105 | -0.189
MMTAG2_Q9BU76_103_EDFAEVCKR (UniProt Q9BU76) | -0.191 | -0.324
MMADHC_Q9H3L0_82_FQLPGNIGFDCHLNGTASQK (UniProt Q9H3L0) | 0.0172 | -0.152
MICU1_Q9BPX6_275_SGLCSALTTYFFGADLK (UniProt Q9BPX6) | 0.0053 | -0.0317
MPC1_Q9Y5U8_83_NWLLFACHATNEVAQLIQGGR (UniProt Q9Y5U8) | -0.109 | -0.0149
MON2_Q7Z3U7_592_AELTMAALCGR (UniProt Q7Z3U7) | 0.00278 | 0.0976
MPP1_Q00013_242_VASMAQSAPSEAPSCSPFGK (UniProt Q00013) | -0.172 | -0.3
MKLN1_Q9UL63_411_ILTCNGSVDDSR (UniProt Q9UL63) | 0.0272 | -0.0506
MLST8_Q9BVC4_107_WMYTGGEDCTAR (UniProt Q9BVC4) | 0.0109 | -0.0842
MMTAG2_Q9BU76_179_AEDQTESSCESHRK (UniProt Q9BU76) | 0.0799 | -0.12
MOB4_Q9Y3A3_97_LQSECHPDTCTQMTATEQWIFLCAAHK (UniProt Q9Y3A3) | 0.0422 | -0.119
MIB1_Q86YT6_462_RPDVDVNGQCAGHTAMQAASQNGHVDILK (UniProt Q86YT6) | 0.131 | -0.117
MPP2_Q14168_256_CHFDYDPAR (UniProt Q14168) | 0.102 | 0.0369

Target | probe-labelled cysteine peptide fold change (10 µM) | probe-labelled cysteine peptide fold change (50 µM)
MRE11_P49959_249_HGSTNFIPEQFLDDFIDLVIWGHEHECK (UniProt P49959) | -0.0677 | -0.0212
MNAT1_P51948_49_GAGNCPECGTPLR (UniProt P51948) | 0.159 | 0.176
MOGS_Q13724_602_CWVALGAR (UniProt Q13724) | -0.0135 | -0.0553
MIS18BP1_Q6P0N0_870_HPLECLPGLIQDK (UniProt Q6P0N0) | 0.0533 | 0.0794
MGST1_P10620_50_VFANPEDCVAFGKGENAK (UniProt P10620) | -0.204 | -0.15
MRM3_Q9HC36_309_ASDHGWVCDQR (UniProt Q9HC36) | 0.135 | -0.1
MORC3_Q14149_307_ITFGFNCR (UniProt Q14149) | -0.111 | 0.121
MPP6_Q9NZW5_103_CYDSPPSSPEMNNSSINNQLLPVDAIR (UniProt Q9NZW5) | -0.222 | -0.345
MORC3_Q14149_694_SADDAGCQLQELR (UniProt Q14149) | -0.102 | -0.326
MMADHC_Q9H3L0_261_HLGFSVDDLGCCK (UniProt Q9H3L0) | 0.000804 | -0.161
MOB4_Q9Y3A3_134_HTLDGAACLLNSNK (UniProt Q9Y3A3) | -0.19 | -0.629
MMTAG2_Q9BU76_179_AEDQTESSCESHR (UniProt Q9BU76) | 0.0239 | -0.0101
MRI1_Q9BV20_168_VTVLTHCNTGALATAGYGTALGVIR (UniProt Q9BV20) | 0.171 | -0.0174
MRC2_Q9UBG0_521_AGQLSQGAAEEDHGCRK (UniProt Q9UBG0) | 0.141 | 0.032
MORC3_Q14149_255_AYCSILYLK (UniProt Q14149) | 0.0806 | 0.181
MIS18A_Q9NYP9_231_LSFATCK (UniProt Q9NYP9) | 0.0205 | -0.0549
MRPL37_Q9BZE1_177_RETYCPVIVDNLIQLCK (UniProt Q9BZE1) | 0.0168 | -0.11
MIB2_Q96AX9_969_ITCPICIDSHIR (UniProt Q96AX9) | -0.0725 | 0.16
MKI67_P46013_3199_GKGEAGNSDSMCLR (UniProt P46013) | -0.13 | -0.372
MKLN1_Q9UL63_128_HKIDEQMFPCR (UniProt Q9UL63) | -0.0802 | 0.0349
MRC2_Q9UBG0_213_EDGHLWCATTQDYGKDER (UniProt Q9UBG0) | -0.0873 | -0.0151

Target | probe-labelled cysteine peptide fold change (10 µM) | probe-labelled cysteine peptide fold change (50 µM)
MRPL45_Q9BRJ2_151_DIFIEAHLCLNNSDHDR (UniProt Q9BRJ2) | -0.648 | -0.159
MIS18A_Q9NYP9_107_RPLGDSLSWVASQEDTNCILLR (UniProt Q9NYP9) | -0.0384 | -0.0554
MON1B_Q7L1V2_297_NVLAECR (UniProt Q7L1V2) | -0.0116 | 0.0726
MMACHC_Q9Y4U1_149_ISGVCIHPR (UniProt Q9Y4U1) | -0.0467 | 0.168
MGRN1_O60291_297_HLCLCTSCADTLR (UniProt O60291) | -0.11 | -0.0448
MIB1_Q86YT6_103_CAECTNYDLCTVCYHGDK (UniProt Q86YT6) | 0.0792 | -0.0222
MLH1_P40692_77_LIQIQDNGTGIRKEDLDIVCER (UniProt P40692) | -0.198 | -0.0621
MGA_Q8IWI9_1146_KLEYTICETEPEQPVR (UniProt Q8IWI9) | -0.124 | -0.231
MICAL3_Q7RTP6_1760_SCPSTPSSGATVDSGK (UniProt Q7RTP6) | -0.144 | -0.198
MPG_P29372_56_AGQPHSSSDAAQAPAEQPHSSSDAAQAPCPR (UniProt P29372) | 0.193 | -0.822
MRPL37_Q9BZE1_153_NHIENQDECVLNVISHAR (UniProt Q9BZE1) | 0.0209 | 0.139
MRPL35_Q9NZE8_150_EFVFCNK (UniProt Q9NZE8) | -0.085 | -0.192
MGA_Q8IWI9_1313_SSCNEGESSSTSYMHQR (UniProt Q8IWI9) | 0.217 | -0.252
MMTAG2_Q9BU76_58_APCAGPSREEELAAVR (UniProt Q9BU76) | -0.104 | -0.251
MINK1_Q8N4C8_269_KFIDFIDTCLIK (UniProt Q8N4C8) | -0.175 | -0.00214
MICAL3_Q7RTP6_97_CLIIGAGPCGLR (UniProt Q7RTP6) | -0.0826 | -0.0375
MKLN1_Q9UL63_446_LLREDSCNAGPEDIQSR (UniProt Q9UL63) | 0.0545 | 0.179
MRPL44_Q9H9J2_167_NLVDFLTGEEVVCHVAR (UniProt Q9H9J2) | 0.159 | 0.17

Rewritten in markdown: entries from further up

| Target | probe-labelled cysteine peptide fold change (10 µM) | probe-labelled cysteine peptide fold change (50 µM) |
| --- | --- | --- |
| MIS18A_Q9NYP9_107_RPLGDSLSWVASQEDTNCILLR (UniProt Q9NYP9) | -0.0384 | -0.0554 |
| MON1B_Q7L1V2_297_NVLAECR (UniProt Q7L1V2) | -0.0116 | 0.0726 |
